Experimental data from the supplement of paper PMC12819154, “High-throughput peptide-centric local stability assay extends protein–ligand identification to membrane proteins, tissues and bacteria” (Nature Structural & Molecular Biology, 2025).
Some of the results follow. Most values lie at the level of the controls, where differences are scatter.

Amino acid sequences for entries named in this document (tags omitted). A change or cut given only in a name is not applied to a line headed by its entry.
UniProt Q5EE01: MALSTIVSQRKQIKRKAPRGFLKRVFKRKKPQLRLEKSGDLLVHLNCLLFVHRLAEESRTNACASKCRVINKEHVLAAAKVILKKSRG
UniProt Q5T1M5: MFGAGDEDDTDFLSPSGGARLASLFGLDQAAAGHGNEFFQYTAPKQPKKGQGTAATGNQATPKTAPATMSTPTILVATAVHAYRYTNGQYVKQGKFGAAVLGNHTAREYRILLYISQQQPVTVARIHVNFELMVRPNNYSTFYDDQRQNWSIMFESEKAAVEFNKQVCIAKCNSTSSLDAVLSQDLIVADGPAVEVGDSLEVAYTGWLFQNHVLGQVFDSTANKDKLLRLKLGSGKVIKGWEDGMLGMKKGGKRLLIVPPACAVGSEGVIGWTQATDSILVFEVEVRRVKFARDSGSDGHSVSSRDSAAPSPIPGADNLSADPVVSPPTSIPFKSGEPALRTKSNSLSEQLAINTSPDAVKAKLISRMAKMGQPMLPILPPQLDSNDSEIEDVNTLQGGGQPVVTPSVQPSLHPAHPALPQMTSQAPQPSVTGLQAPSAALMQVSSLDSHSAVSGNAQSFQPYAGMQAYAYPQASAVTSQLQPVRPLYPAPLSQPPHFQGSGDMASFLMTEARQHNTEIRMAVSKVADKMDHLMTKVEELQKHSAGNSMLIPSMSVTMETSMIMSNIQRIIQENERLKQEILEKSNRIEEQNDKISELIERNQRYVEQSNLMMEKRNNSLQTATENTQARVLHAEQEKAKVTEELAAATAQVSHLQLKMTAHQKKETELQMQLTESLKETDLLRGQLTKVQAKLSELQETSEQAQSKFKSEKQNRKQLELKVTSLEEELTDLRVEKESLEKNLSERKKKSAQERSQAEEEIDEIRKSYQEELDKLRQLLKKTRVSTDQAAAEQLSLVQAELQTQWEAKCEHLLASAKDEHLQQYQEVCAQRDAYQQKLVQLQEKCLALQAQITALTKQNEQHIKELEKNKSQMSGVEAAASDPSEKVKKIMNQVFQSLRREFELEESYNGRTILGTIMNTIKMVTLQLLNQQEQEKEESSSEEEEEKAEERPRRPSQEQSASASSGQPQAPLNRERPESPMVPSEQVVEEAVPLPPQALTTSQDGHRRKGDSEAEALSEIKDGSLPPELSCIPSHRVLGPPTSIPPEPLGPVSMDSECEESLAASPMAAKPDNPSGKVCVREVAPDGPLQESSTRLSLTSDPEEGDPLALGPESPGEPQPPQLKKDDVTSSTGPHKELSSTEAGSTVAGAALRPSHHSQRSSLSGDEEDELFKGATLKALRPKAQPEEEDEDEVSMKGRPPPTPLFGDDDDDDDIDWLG
UniProt Q5VYV7: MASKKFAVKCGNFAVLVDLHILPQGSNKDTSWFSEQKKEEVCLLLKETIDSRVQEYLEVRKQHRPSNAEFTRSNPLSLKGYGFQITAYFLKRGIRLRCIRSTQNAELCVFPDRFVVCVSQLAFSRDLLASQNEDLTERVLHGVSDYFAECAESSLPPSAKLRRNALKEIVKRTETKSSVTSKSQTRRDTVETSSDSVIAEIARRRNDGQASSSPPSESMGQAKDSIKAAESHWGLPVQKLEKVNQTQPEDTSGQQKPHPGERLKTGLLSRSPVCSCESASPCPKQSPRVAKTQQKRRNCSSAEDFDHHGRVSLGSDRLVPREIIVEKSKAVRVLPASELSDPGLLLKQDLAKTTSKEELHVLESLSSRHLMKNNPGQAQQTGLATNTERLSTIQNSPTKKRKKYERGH
UniProt Q53H80, whole entry: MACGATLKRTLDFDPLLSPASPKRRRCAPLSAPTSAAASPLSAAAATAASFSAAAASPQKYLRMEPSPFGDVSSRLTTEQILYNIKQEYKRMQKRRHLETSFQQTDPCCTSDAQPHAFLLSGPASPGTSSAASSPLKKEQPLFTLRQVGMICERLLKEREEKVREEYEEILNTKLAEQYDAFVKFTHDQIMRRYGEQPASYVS
UniProt Q5THK1: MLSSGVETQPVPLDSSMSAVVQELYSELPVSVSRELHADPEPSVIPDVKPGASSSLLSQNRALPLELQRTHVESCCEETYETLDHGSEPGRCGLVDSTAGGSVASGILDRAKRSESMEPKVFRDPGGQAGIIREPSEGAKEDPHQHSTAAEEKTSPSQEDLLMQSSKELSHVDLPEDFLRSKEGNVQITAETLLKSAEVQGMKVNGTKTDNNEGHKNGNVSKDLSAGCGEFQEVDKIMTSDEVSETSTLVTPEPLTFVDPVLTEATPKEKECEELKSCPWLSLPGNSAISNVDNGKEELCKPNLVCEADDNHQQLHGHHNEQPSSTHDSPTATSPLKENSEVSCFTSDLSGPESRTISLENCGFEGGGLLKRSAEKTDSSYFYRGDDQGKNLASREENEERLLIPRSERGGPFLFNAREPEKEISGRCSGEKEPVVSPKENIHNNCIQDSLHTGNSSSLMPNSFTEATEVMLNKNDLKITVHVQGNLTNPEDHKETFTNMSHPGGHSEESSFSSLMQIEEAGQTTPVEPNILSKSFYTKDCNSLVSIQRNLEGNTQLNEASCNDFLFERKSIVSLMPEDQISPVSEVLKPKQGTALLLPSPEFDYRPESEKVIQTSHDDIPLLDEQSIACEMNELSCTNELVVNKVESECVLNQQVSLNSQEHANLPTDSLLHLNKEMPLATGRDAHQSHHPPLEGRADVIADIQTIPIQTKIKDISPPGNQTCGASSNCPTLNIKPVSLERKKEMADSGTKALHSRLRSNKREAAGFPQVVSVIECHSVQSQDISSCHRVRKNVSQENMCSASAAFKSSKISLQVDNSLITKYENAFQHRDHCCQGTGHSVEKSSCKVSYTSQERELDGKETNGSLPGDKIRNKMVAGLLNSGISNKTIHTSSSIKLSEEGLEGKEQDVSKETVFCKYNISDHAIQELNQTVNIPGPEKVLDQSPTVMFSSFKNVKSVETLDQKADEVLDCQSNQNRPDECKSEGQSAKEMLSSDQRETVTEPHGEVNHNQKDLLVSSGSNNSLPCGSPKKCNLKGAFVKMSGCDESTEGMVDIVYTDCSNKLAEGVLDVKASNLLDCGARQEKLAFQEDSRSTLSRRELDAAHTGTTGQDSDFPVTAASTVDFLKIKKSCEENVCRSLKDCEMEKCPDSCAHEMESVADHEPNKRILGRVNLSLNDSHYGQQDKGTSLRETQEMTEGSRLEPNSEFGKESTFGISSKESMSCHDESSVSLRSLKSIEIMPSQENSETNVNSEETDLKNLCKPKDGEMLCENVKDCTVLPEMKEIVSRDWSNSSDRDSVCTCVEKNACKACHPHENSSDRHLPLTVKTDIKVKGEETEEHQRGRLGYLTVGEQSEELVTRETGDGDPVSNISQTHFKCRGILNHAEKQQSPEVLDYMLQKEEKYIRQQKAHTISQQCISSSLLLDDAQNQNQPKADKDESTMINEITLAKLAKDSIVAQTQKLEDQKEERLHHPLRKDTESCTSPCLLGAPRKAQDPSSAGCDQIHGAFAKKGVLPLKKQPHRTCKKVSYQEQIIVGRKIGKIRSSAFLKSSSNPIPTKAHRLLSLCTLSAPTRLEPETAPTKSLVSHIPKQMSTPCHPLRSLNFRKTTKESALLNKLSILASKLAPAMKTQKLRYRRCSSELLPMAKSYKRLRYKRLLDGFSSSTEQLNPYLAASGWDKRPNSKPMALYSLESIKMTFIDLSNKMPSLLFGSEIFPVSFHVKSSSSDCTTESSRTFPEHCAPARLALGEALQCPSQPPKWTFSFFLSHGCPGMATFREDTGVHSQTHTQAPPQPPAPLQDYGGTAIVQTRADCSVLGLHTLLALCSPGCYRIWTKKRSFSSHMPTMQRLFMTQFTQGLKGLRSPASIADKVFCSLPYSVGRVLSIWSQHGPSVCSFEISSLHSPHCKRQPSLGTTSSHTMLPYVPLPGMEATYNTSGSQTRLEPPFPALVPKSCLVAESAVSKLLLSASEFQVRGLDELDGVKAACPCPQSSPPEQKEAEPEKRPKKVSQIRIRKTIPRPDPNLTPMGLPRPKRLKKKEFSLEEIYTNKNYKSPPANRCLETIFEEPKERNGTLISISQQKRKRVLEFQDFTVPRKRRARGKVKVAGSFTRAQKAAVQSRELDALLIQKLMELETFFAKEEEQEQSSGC
UniProt Q5U5Q3: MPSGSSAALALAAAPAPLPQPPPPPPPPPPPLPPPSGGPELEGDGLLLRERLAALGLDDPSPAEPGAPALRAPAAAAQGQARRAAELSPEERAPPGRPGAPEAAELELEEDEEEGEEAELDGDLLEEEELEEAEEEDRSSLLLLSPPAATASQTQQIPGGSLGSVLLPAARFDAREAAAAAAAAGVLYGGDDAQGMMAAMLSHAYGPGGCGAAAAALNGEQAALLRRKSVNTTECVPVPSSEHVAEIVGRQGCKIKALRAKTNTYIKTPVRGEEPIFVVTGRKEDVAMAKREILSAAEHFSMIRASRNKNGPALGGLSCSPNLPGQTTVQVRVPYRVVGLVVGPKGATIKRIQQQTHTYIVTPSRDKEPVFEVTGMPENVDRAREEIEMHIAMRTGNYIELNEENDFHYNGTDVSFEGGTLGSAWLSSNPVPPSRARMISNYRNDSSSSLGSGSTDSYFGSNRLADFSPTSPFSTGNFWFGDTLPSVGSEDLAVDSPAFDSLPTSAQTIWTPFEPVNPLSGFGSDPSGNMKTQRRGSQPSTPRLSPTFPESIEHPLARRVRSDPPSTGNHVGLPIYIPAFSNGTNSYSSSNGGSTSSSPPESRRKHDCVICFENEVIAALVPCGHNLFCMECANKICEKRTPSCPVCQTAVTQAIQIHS
UniProt Q58FF6, whole entry: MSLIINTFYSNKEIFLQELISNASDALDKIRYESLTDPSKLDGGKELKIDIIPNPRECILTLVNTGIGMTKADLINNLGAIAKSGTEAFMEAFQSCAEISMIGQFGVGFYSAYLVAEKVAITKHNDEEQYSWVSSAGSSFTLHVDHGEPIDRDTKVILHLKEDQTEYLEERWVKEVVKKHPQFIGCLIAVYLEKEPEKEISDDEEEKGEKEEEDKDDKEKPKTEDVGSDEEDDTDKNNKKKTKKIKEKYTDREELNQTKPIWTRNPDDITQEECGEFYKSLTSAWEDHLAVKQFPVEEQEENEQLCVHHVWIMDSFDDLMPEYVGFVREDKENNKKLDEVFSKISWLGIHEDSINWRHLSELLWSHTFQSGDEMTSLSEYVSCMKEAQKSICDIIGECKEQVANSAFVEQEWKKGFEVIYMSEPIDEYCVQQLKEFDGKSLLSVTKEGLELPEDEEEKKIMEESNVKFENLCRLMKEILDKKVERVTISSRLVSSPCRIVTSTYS
UniProt Q5T8I3: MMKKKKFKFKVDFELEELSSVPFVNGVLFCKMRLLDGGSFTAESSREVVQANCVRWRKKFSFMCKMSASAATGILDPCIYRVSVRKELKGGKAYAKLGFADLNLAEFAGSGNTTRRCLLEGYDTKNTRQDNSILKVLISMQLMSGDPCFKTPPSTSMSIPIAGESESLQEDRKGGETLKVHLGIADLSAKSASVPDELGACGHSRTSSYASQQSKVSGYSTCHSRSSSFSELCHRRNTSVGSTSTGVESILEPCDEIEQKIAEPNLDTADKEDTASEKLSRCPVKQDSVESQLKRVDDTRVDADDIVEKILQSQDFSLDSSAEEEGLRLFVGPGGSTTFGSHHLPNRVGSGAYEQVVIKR

The targets below were run with CN[C@@H]1C[C@H]2O[C@@](C)([C@@H]1OC)n1c3ccccc3c3c4c(c5c6ccccc6n2c5c31)C(=O)NC4 [staurosporine] (assay: log2 fold change of tryptic peptide abundance, ligand vs vehicle (limited proteolysis) (log2 ratio); higher = more trypsin-susceptible (destabilized)). Conditions: ligand concentration: 20 uM; sample: K562 cleared lysate; digestion: 4 min, 22 C (HT-PELSA RT4min, Orbitrap Astral).

Row | Target | log2 fold change
1 | MIIP (peptide sequence: LLNLELLR, peptide start residue: 12) (UniProt Q5JXC2) | -0.0991
2 | NOL9 (peptide sequence: LLSPSHVVQFR, peptide start residue: 425) (UniProt Q5SY16) | 0.937
3 | UniProt Q5EE01 (peptide sequence: SGDLLVHLNCLLFVHR, peptide start residue: 38) | -0.0458
4 | FKBP15 (peptide sequence: DDVTSSTGPHK, peptide start residue: 1126) (UniProt Q5T1M5) | 0.457
5 | SLX4IP (peptide sequence: NCSSAEDFDHHGR, peptide start residue: 298) (UniProt Q5VYV7) | 0.644
6 | AKIRIN2 (peptide sequence: LTTEQILYNIK, peptide start residue: 76) (UniProt Q53H80) | -0.174
7 | ATXN7L2 (peptide sequence: APPPPPAPASSQK, peptide start residue: 113) (UniProt Q5T6C5) | 0.327
8 | CEP350 (peptide sequence: SVVNQLKK, peptide start residue: 2066) (UniProt Q5VT06) | 0.557
9 | UniProt Q5THK1 (peptide sequence: NGTLISISQQK, peptide start residue: 2073) | 0.353
10 | UniProt Q5T124 (peptide sequence: TVSEHGER, peptide start residue: 168) | -1.07
11 | ANO6 (peptide sequence: MIEAVDNNLRPK, peptide start residue: 897) (UniProt Q4KMQ2) | -0.244
12 | LACTB2 (peptide sequence: SFTVMELVK, peptide start residue: 235) (UniProt Q53H82) | 0.205
13 | TOR1AIP1 (peptide sequence: SIQEAPVSEDLVIR, peptide start residue: 179) (UniProt Q5JTV8) | -0.626
14 | UniProt Q5VV17 (peptide sequence: LLLHGPDPVPGAAGSAAAPR, peptide start residue: 124) | 0.213
15 | VARS2 (peptide sequence: EGFFKPEYQAR, peptide start residue: 120) (UniProt Q5ST30) | -0.266
16 | MEX3C (peptide sequence: TPVRGEEPIFVVTGR, peptide start residue: 268) (UniProt Q5U5Q3) | -0.238
17 | MIA3 (peptide sequence: LHTLSVEHQR, peptide start residue: 606) (UniProt Q5JRA6) | 0.822
18 | ATPAF1 (peptide sequence: KQPVGHSR, peptide start residue: 107) (UniProt Q5TC12) | 0.241
19 | HSP90AB4P (peptide sequence: SLIINTFYSNK, peptide start residue: 2) (UniProt Q58FF6) | -0.205
20 | UniProt Q5FBB7 (peptide sequence: NLAEIGKR, peptide start residue: 29) | 0.47
21 | FAM102B (peptide sequence: IAEPNLDTADKEDTASEKLSR, peptide start residue: 261) (UniProt Q5T8I3) | -0.92
22 | RABGAP1L (peptide sequence: DTGGDGQESLYK, peptide start residue: 594) (UniProt Q5R372) | -0.6
23 | MAGI3 (peptide sequence: STLNENQPEIK, peptide start residue: 1172) (UniProt Q5TCQ9) | -0.458
24 | UniProt Q5T4T6 (peptide sequence: FLVDGLKEDEPLLIR, peptide start residue: 92) | -0.196
25 | MYSM1 (peptide sequence: TGHNLQVK, peptide start residue: 180) (UniProt Q5VVJ2) | 0.211
26 | PREPL (peptide sequence: DLQPVKQENEKPLPENMDAFEK, peptide start residue: 74) (UniProt Q4J6C6) | 0.469
27 | COQ5 (peptide sequence: VYQVFESVAK, peptide start residue: 68) (UniProt Q5HYK3) | -0.114
28 | ARHGEF16 (peptide sequence: LQALAEEPSQPHTR, peptide start residue: 177) (UniProt Q5VV41) | -0.229

Reprinted at random: 2 entries already listed
Row | Target | log2 fold change
25 | MYSM1 (peptide sequence: TGHNLQVK, peptide start residue: 180) (UniProt Q5VVJ2) | 0.211
23 | MAGI3 (peptide sequence: STLNENQPEIK, peptide start residue: 1172) (UniProt Q5TCQ9) | -0.458
